67 sequences from PubChem BioAssay AID1347423 (Functional Genomics Laboratory (NCATS/FGL), 2020) can be followed below.

Out of some 52,000 sequences screened, about 210 (0.4%) were called active.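 Rule for the calls: active = gene whose silencing raises cell survival under the drug, median off-target-corrected z-score across its silencing RNAs 2 or more; inactive = the rest.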 The list shows a part of the results.

The test in a line: Resistance to Poly (ADP-Ribose) Polymerase inhibitor: Gene Identification via Genome-wide siRNA Screen. Particulars: mouse BRCA2 R2336H ES cells, olaparib, CellTiter-Glo viability; active compounds read high. The procedure, abridged: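 Mouse BRCA2 R2336H ES cells were reverse-transfected with siRNA (20 nM final), treated at 48 h with 500 nM olaparib, and read by CellTiter-Glo after 72 h. Scores: MAD-based z per siRNA, median per gene, seed off-target correction.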
For orientation: ATP-based viability assays read luminescence as a measure of living cells.
On to GCAACAAAUGGACUUUCCATT against Stard13, for which the z-score was inactive: -1.37.
As for GGCAAAAAAAACUGCUAUATT against Gpr128, the figure is active: 0.0555; as for “GGUAAAGUCAAAAUCACCATT against D14Ertd581e”, inactive: 1.58.
As for GGCAAAGCAGGGAUCUAGATT against Noxo1, the figure is inactive: -0.235.
Consider GCACAACAUACCCUGUGGUTT against Syn1, for which the z-score was inactive: -0.053.
As for GGCUGCUUUAAAGAGAUUCTT against Olfr1045, the figure is inactive: 0.919.
As for CCAAAGUCAUAAUUCCAACTT against Timm23, the figure is inactive: -1.95; as for CCUCAAAGGCCCUACCAAUTT against Tle6, inactive: -2.35.
GGCUUGUGAAUGGAAAUAATT against Hspca: the z-score was inactive: -0.904.
Consider GGUGAAAGAGAAGACUGAATT against Scye1, for which the z-score is inactive: -2.55.
With GGAGGUUCAGCAACGCAUUTT against Tessp3, the z-score is inactive: 0.0178.
As for GCAUCAUGAACUCCUUUGUTT against Hist1h2ba, the figure is inactive: -0.703; as for CCUACGUGUUUAAGAUGAATT against Alk, inactive: -0.439.
For the sequence “GGUUUUUAACUGGAAAACUTT against 4632422M10Rik”, the z-score was inactive: -0.064.
As for GGGACAAAGAAAAUCUACUTT against Ehf, the figure is inactive: -1.63; as for GAAAAAUGUGGAAGAGAUUTT against Olfr1219, inactive: -0.27.
With GGCCAUUUGGAAACUAUUATT against Anapc11, the z-score is inactive: -0.5.
As for “GGACAAAAGGCAAUCUACATT against 2810422O20Rik”, the figure is inactive: -0.171; as for “GGGAAAAAUGUCUCAAACATT against 1200006O19Rik”, inactive: 0.498; as for GGAAUGAGAAGAGAGGAUCTT against Rpp25, inactive: 0.0843.
As for GGGAUCAAAGGAAAUUACATT against Vnn1, the figure is inactive: -1.46.
Regarding GGUCUCCACCUCCAUAUCCTT against Slc15a3, the z-score is inactive: 0.715.
Then GGACAGCACUAACACAUCCTT against Slamf9, with inactive: -0.438; and GGGAUCUAAGGAACAGAGATT against Fgf8, with inactive: 0.00428.
Then GGGUUAGGUUGGGAUGGAUTT against Ccnd3, with inactive: -0.69; and GGUGUACCUACAGUUAUGGTT against Mir, with inactive: -0.917.
As for CCUCUACUCCUUAUUGUCUTT against Ctf2, the figure is inactive: 1.07; as for CCAAGCUAGAUAAAGAAAGTT against Yap1, inactive: -2.41; as for GAGAAGAAGACAAAGAUCCTT against Defb7, inactive: -0.714.
Regarding GCAAUCCAGAGGUACGCUATT against Hgf, the z-score is inactive: 0.286.
Then GGCUAAACUGAAGGAAUUCTT against Fkbp10, with inactive: -0.482.
With CCGAGGAGAACACUUGUAGTT against Opn4, the z-score was inactive: -0.819.
Then GCUCUUCUCAAGUAUGACGTT against Chrna6, with inactive: 1.06; and GGUGUAUGUGCUGAAGCGATT against Ctdspl, with inactive: -0.00555; and CCUCUUAAGUUUUCCAUGATT against Tuba2, with inactive: -2.07.
For the sequence GGUGACAUCUUCAUUGGCCTT against Actr1a, the z-score was inactive: -0.486.
Regarding GCGCGUCAUCUUCUGACUUTT against BC025076, the z-score is inactive: -0.524.
As for CCUUCCGCCUAUCCUAUUGTT against Olfr52, the figure is inactive: -0.704; as for GGAACUUCAGUGUUGCCUCTT against Olfr257, inactive: 0.105; as for “CCACUUUCUGUUGCACUCUTT against 2310067G05Rik”, inactive: -0.948.
Take CGACAUGGAACACAAGACCTT against Map3k11: the z-score is inactive: -0.547.
For GCUGCCGAUUGAUAGCUUCTT against Pik3ca, the z-score is inactive: -1.11.
On to GGCUCAUUUAACUCCAUGCTT against BC031407, for which the z-score is inactive: 1.54.
Then GGGAAGAGAAAACUGGACUTT against Xrcc1, with inactive: -0.484; and GGAAACCCAUUCACAAAUCTT against Tcfec, with inactive: 0.19; and “CCCAUCUCUAUCUUGGCCGTT against D1Bwg1363e”, with inactive: 0.0856.
Then CUUAAAGGAAUCCUGGUGGTT against LOC434197, with inactive: 1.09.
As for GGAAUCAUCUUCAUUGACCTT against Agpat1, the figure is inactive: -2.32.
Consider GGCUUCAGCAUUAAUUGUUTT against Ass, for which the z-score was inactive: -1.59.
As for GCUAGAAAGAGUUAAUCUATT against Wdr11, the figure is inactive: -0.638; as for GGAAGGACUCCUGUACAUCTT against Cyp4f18, inactive: -0.206; as for GGUCCAAGCCUUAAUAUAUTT against Aadac, inactive: 0.0303.
For the sequence CCGUCUUUGUGCUAUGCUGTT against Sstr4, the z-score was inactive: 0.256.
As for GCCAUUGCUUUAUAAGGUUTT against Olfr901, the figure is inactive: 0.0414; as for GGCUGUUUAUUGUAAUGGATT against BB049667, inactive: 0.537; as for GGCAGAUACUUCUCUGGAGTT against Sdc4, inactive: -0.388.
Then GUAGUAACAGGAUCUUCUUTT against V1rc20, with inactive: -0.398.
As for GGAACAAAGUGUCAGAGGATT against Hcls1, the z-score is inactive: 0.246.
Turning to “GCAUUACUUGAGCAAAACATT against 1600021C16Rik”, the z-score was inactive: 0.335.
As for GGCUCCAUCGAAAGGUAAATT against Lyar, the figure is inactive: 0.696; as for GGCUUUGAAAGUUACUACUTT against Zfp609, inactive: 0.684; as for CGAACAGAGUCUAAUCUCATT against Ptpn1, inactive: 0.714.
Then GCUCGGUAGGUAUUUUCUGTT against AW547186, with inactive: 1.89.
For the sequence CGAGUGCAUGAAAUCUUCATT against Polr2a, the z-score was inactive: -2.14.
On to GCUCUAGAAGCGUACAGGCTT against Pole3, for which the z-score is inactive: 0.872.
As for “GGCAACCUUGUCUAUUCACTT against 1110014J01Rik”, the figure is inactive: -0.726; as for GGAGAAAGGAUAUGAACUUTT against BC013481, inactive: 0.774.
